According to patent US20150031748A1 (AGENCY FOR SCIENCE TECHNOLOGY AND RESEARCH, published 2015):
No constants are given. Whether binding was seen depends on the method and setting. In cells and extracts the contact can be indirect. Some entries that bind do so weakly or less than the wild type. Sequences can lack the tags named with a protein.

T1: HA-Slug (full length mouse Slug in pDHA, two HA tags) (Mus musculus) (UniProt P97469)
T1 sequence (chain, by the resolver, 35S-methionine labelled in Example 5): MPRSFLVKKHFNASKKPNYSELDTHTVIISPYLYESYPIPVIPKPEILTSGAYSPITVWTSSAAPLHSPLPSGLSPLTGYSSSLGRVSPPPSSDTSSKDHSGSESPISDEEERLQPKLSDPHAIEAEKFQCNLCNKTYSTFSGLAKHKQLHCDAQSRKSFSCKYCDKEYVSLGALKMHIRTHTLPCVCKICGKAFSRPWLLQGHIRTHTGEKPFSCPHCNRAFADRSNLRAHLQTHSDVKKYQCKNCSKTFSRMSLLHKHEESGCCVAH

T2: GST-Slug (full length mouse Slug in pGEX4T-1) (Mus musculus) (UniProt P97469)
T2 sequence: T1 sequence (chain, by the resolver, 35S-methionine labelled in Example 5)

B1: GST-ZO-2SGA (canine ZO-2 amino acids 575-947 in pGEX-6P-1) (protein, not shown: a dimerising Fc or GST; small tags and cut ends)
chain: RADVYRDILACGRGDSFFIRSHFECEKETPQSLAFSRGEVFRVVDTLYDGKLGHWLAVRIGNELEKGLIPNKSRAEQMASVQNAQRDNAGDRADFWRMRGQRSGMKKNLRKSREDLTAAVSVSTKFPAYERVLLREAGFKRPVVLFGPIADIALEKLANELPDLFQTAKTEPKDAGSEKSSGVVRLNTVRQIIEQDKHALLDVTPKAVDLLNYTQWFPIVIFFNPDSRQGVKTMRQRLNPTSNKSSRKLYDQANKLKKTCAHLFTATINLNSANDSWFGSLKDTIQHQQGEAVWVSEGKMEGMDDDPEDRMSYLTAMGADYLSCDSRLISDFEDTDGEGGAYTDNELDEPAEEPLVSSITRSSEPVQHEESIR
B2: MYC tagged GA domain of canine ZO-2 (amino acids 713-947), in vitro translated (protein, not shown: small tags and cut ends)
chain: FKRPVVLFGPIADIALEKLANELPDLFQTAKTEPKDAGSEKSSGVVRLNTVRQIIEQDKHALLDVTPKAVDLLNYTQWFPIVIFFNPDSRQGVKTMRQRLNPTSNKSSRKLYDQANKLKKTCAHLFTATINLNSANDSWFGSLKDTIQHQQGEAVWVSEGKMEGMDDDPEDRMSYLTAMGADYLSCDSRLISDFEDTDGEGGAYTDNELDEPAEEPLVSSITRSSEPVQHEESIR
B3: GST-ZO-2GA (canine ZO-2 amino acids 714-947 in pGEX-6P-1) (protein, not shown: a dimerising Fc or GST; small tags and cut ends)
chain: KRPVVLFGPIADIALEKLANELPDLFQTAKTEPKDAGSEKSSGVVRLNTVRQIIEQDKHALLDVTPKAVDLLNYTQWFPIVIFFNPDSRQGVKTMRQRLNPTSNKSSRKLYDQANKLKKTCAHLFTATINLNSANDSWFGSLKDTIQHQQGEAVWVSEGKMEGMDDDPEDRMSYLTAMGADYLSCDSRLISDFEDTDGEGGAYTDNELDEPAEEPLVSSITRSSEPVQHEESIR

Assays:
[1] = target: T1, HA-Slug (full length mouse Slug in pDHA, two HA tags) (Mus musculus); assay: GST pull-down of 35S-labeled in vitro translated HA-Slug, autoradiography
[2] = target: T2, GST-Slug (full length mouse Slug in pGEX4T-1) (Mus musculus); assay: GST pull-down of in vitro translated MYC-ZO-2GA, anti-myc blot

Binder | binding [1] | binding [2]
B1 | binds | –
B2 | – | binds
B3 | binds | –
